Reference: the supplement of paper PMC9454738
Counter-ions that a name gives are not always drawn. ± gives the standard deviation of the averaged measurements. The list shows a part of the results. Single values are uncertain here, since repeats match poorly.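 Test systems: triple-negative MDA-MB-231 breast cancer cells and their brain-metastatic MDA-MB-231BRM derivative, each stably carrying empty vector, full-length GLI1 or truncated tGLI1. Viability after 48 h was read by CellTiter-Blue and expressed against 1% DMSO vehicle. A compound was tGLI1-selective if it lowered viability 20% more in tGLI1 cells than in vector and GLI1 cells.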

Assays:
Experiment in all cases: cell viability relative to vehicle (DMSO) control (fraction); higher = more viable cells (less growth inhibition)
Settings in all cases: treatment time 48 h
[1] = test system: MDA-MB-231 GLI1
[2] = test system: MDA-MB-231 Vector
[3] = test system: MDA-MB-231 tGLI1
[4] = test system: MDA-MB-231BRM GLI1
[5] = test system: MDA-MB-231BRM Vector
[6] = test system: MDA-MB-231BRM tGLI1

SMILES	cell viability ([1]; 0.05 µM)	cell viability ([1]; 0.5 µM)	cell viability ([1]; 5 µM)	cell viability ([2]; 0.05 µM)	cell viability ([2]; 0.5 µM)	cell viability ([2]; 5 µM)	cell viability ([3]; 0.05 µM)	cell viability ([3]; 0.5 µM)	cell viability ([3]; 5 µM)	cell viability ([4]; 0.05 µM)	cell viability ([4]; 0.5 µM)	cell viability ([4]; 5 µM)	cell viability ([5]; 0.05 µM)	cell viability ([5]; 0.5 µM)	cell viability ([5]; 5 µM)	cell viability ([6]; 0.05 µM)	cell viability ([6]; 0.5 µM)	cell viability ([6]; 5 µM)
N=C(N)NC(=N)NCCc1ccccc1 [Phenformin HCl]	1.31	1.36	1.38	1.19	1.57	1.53	1.36	1.25	1.18	1.03	1.08	0.969	1.06	1.07	0.977	1.1	1.1	1.08
Cn1cc(-c2ccc3nnc(Sc4ccc5ncccc5c4)n3n2)cn1	1.36	1.94	1.45	1.55	1.23	1.06	1.32	1.4	0.82	0.949	0.971	0.919	0.965	0.931	0.931	0.947	0.963	0.918
C#Cc1cccc(Nc2ncnc3cc(OC)c(OCCCCCCC(=O)NO)cc23)c1	0.82	0.848	-0.147	1.09	0.616	-0.066	0.988	0.709	-0.142	1.01	1.23	1.19	0.939	1.17	1.15	0.991	1.18	1.04
O=C1NC(=O)C(c2cnc3ccccn23)=C1c1cn2c3c(cc(F)cc13)CN(C(=O)N1CCCCC1)CC2	0.837	1.27	0.909	0.861	1.17	0.658	0.801	1.21	1.11	1.01	1.08	0.978	1.12	1.13	1.03	1.13	1.06	1.06
Nc1ccc(-c2ccc3ncc4ccc(=O)n(-c5cccc(C(F)(F)F)c5)c4c3c2)cn1 [Torin 2]	0.337	0.212	0.101	0.402	0.282	0.208	0.388	0.228	0.222	0.958	1.03	0.876	0.951	1.01	0.959	0.925	0.964	0.816
Nc1nc(Cl)nc2c1ncn2[C@H]1C[C@H](O)[C@@H](CO)O1 [Cladribine]	0.725	0.528	0.334	0.868	0.542	0.273	0.851	0.599	0.215	0.991	0.916	0.706	0.988	0.881	0.752	0.983	0.967	0.816
Cc1ccc([N+](=O)[O-])cc1S(=O)(=O)N(C)/N=C/c1cnc2ccc(Br)cn12	0.134	0.141	-0.0566	0.364	0.222	0.0418	0.181	0.131	-0.0732	1.47	1.03	0.346	0.624	0.987	0.625	1.08	0.551	0.557
Oc1cc(O)cc(/C=C/c2ccc(O)c(O)c2)c1 [Piceatannol]	1.31	1.67	1.15	1.21	1.48	1.19	1.33	1.4	1.23	1.02	0.936	0.763	1.09	1	0.812	1.02	0.972	0.771
CC(C)(C)c1ccc(S(=O)(=O)/C=C/C#N)cc1	0.828	1.61	0.923	0.393	0.484	0.16	0.441	0.524	0.21	0.599	0.495	0.63	0.611	0.473	0.58	0.743	0.611	0.976
CO[C@@H](C(=O)N1Cc2[nH]nc(NC(=O)c3ccc(N4CCN(C)CC4)cc3)c2C1)c1ccccc1	0.963	0.926	0.385	0.733	0.655	0.326	0.724	0.748	0.371	1.01	1.01	0.913	0.948	1.04	0.856	1.01	1.07	0.832
NC[C@@](O)(c1ccc(Cl)cc1)c1ccc(-c2cn[nH]c2)cc1	2.37	2.74	0.437	1.46	1.11	0.214	1.53	1.33	0.322	0.822	0.888	0.917	0.977	0.885	0.876	1.28	1.11	1.2
O=C1Nc2ccccc2/C1=C1/Nc2ccccc2C1=O [Indirubin]	0.855 ± 0.13	0.814 ± 0.2	1.11 ± 0.23	0.967 ± 0.45	0.886 ± 0.24	0.848 ± 0.31	0.874 ± 0.032	0.776 ± 0.061	0.886 ± 0.5	1.06 ± 0.044	1.03 ± 0.089	0.977 ± 0.065	1.05 ± 0.055	1.04 ± 0.14	1.02 ± 0.014	0.997 ± 0.011	1.09 ± 0.071	0.767 ± 0.33
Cc1ccc(NC(=O)c2cccc(C(C)(C)C#N)c2)cc1Nc1ccc2ncn(C)c(=O)c2c1	0.864	0.544	0.512	0.63	0.561	0.571	0.792	0.544	0.488	1.08	1.03	0.55	1.16	1.02	0.605	1.07	1.04	0.399
Clc1ccc(C2(c3ccc(-c4cn[nH]c4)cc3)CCNCC2)cc1	1.48	1.57	0.9	1.93	1.18	0.648	1.26	1.34	0.706	1.22	1.23	0.958	0.732	1.12	1.05	0.601	1.16	0.957

Among those listed so far, 2 contain a cyano group:
SMILES	cell viability ([1]; 0.05 µM)	cell viability ([1]; 0.5 µM)	cell viability ([1]; 5 µM)	cell viability ([2]; 0.05 µM)	cell viability ([2]; 0.5 µM)	cell viability ([2]; 5 µM)	cell viability ([3]; 0.05 µM)	cell viability ([3]; 0.5 µM)	cell viability ([3]; 5 µM)	cell viability ([4]; 0.05 µM)	cell viability ([4]; 0.5 µM)	cell viability ([4]; 5 µM)	cell viability ([5]; 0.05 µM)	cell viability ([5]; 0.5 µM)	cell viability ([5]; 5 µM)	cell viability ([6]; 0.05 µM)	cell viability ([6]; 0.5 µM)	cell viability ([6]; 5 µM)
CC(C)(C)c1ccc(S(=O)(=O)/C=C/C#N)cc1	0.828	1.61	0.923	0.393	0.484	0.16	0.441	0.524	0.21	0.599	0.495	0.63	0.611	0.473	0.58	0.743	0.611	0.976
Cc1ccc(NC(=O)c2cccc(C(C)(C)C#N)c2)cc1Nc1ccc2ncn(C)c(=O)c2c1	0.864	0.544	0.512	0.63	0.561	0.571	0.792	0.544	0.488	1.08	1.03	0.55	1.16	1.02	0.605	1.07	1.04	0.399
